Consider 1 sequence from paper PMC4158885.

This data set concerns the target T1, scPan3 zinc finger (Saccharomyces cerevisiae) (UniProt P36102).
T1 sequence (looked up): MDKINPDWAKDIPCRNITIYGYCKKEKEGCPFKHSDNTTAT
The data set is described as follows: NMR chemical shift perturbation. To be noted: Zn2+, small changes; NMR: 150 uM protein, 150 uM RNA (HSQC); recombinant protein; residues 1-41; protein details: lipoyl domain/His fusion removed by TEV.

Weaker means in comparison with the reference protein, sequence or condition of that experiment. Protein sequences can lack the tags named with them.

With GGGGGGGGGGGGGGG [G15 RNA (NMR)], the binding result is “binds more weakly”.
